Data published in publication doi:10.1101/2025.07.28.667104.
Like-named read-outs stand apart in the source and are kept apart here. No constants are given. Whether binding was seen depends on the method and setting. Binding seen in cells or lysates may run through a third protein. These calls come from enrichment with a bait or labelling near it, and not all partners need be listed.

Sequences of proteins named here, by UniProt entry; tags and fusion partners are left off. A change or cut given only in a name is not applied to a line headed by its entry. Residues count along the entry.
UniProt P23497: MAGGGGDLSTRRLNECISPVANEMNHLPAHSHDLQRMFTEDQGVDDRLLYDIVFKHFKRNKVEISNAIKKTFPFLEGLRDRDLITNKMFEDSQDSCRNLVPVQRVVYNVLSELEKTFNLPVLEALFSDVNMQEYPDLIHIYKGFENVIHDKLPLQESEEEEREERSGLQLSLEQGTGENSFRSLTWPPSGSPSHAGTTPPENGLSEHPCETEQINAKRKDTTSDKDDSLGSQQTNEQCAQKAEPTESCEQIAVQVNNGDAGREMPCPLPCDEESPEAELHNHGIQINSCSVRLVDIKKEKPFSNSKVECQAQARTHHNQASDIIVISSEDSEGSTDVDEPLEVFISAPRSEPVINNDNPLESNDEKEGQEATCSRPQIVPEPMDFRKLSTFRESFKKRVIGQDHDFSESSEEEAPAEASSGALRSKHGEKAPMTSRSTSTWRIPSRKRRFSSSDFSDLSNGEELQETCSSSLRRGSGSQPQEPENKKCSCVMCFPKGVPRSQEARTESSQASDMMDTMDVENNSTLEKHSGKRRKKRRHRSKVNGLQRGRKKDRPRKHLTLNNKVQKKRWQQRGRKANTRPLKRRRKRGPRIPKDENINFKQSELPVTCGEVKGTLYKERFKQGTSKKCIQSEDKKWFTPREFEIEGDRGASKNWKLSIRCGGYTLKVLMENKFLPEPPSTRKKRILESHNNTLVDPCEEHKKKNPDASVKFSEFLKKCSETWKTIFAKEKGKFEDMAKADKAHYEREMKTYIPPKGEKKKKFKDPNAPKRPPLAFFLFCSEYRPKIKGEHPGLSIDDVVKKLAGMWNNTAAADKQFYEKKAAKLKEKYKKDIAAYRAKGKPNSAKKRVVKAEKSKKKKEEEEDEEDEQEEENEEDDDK
UniProt P46100: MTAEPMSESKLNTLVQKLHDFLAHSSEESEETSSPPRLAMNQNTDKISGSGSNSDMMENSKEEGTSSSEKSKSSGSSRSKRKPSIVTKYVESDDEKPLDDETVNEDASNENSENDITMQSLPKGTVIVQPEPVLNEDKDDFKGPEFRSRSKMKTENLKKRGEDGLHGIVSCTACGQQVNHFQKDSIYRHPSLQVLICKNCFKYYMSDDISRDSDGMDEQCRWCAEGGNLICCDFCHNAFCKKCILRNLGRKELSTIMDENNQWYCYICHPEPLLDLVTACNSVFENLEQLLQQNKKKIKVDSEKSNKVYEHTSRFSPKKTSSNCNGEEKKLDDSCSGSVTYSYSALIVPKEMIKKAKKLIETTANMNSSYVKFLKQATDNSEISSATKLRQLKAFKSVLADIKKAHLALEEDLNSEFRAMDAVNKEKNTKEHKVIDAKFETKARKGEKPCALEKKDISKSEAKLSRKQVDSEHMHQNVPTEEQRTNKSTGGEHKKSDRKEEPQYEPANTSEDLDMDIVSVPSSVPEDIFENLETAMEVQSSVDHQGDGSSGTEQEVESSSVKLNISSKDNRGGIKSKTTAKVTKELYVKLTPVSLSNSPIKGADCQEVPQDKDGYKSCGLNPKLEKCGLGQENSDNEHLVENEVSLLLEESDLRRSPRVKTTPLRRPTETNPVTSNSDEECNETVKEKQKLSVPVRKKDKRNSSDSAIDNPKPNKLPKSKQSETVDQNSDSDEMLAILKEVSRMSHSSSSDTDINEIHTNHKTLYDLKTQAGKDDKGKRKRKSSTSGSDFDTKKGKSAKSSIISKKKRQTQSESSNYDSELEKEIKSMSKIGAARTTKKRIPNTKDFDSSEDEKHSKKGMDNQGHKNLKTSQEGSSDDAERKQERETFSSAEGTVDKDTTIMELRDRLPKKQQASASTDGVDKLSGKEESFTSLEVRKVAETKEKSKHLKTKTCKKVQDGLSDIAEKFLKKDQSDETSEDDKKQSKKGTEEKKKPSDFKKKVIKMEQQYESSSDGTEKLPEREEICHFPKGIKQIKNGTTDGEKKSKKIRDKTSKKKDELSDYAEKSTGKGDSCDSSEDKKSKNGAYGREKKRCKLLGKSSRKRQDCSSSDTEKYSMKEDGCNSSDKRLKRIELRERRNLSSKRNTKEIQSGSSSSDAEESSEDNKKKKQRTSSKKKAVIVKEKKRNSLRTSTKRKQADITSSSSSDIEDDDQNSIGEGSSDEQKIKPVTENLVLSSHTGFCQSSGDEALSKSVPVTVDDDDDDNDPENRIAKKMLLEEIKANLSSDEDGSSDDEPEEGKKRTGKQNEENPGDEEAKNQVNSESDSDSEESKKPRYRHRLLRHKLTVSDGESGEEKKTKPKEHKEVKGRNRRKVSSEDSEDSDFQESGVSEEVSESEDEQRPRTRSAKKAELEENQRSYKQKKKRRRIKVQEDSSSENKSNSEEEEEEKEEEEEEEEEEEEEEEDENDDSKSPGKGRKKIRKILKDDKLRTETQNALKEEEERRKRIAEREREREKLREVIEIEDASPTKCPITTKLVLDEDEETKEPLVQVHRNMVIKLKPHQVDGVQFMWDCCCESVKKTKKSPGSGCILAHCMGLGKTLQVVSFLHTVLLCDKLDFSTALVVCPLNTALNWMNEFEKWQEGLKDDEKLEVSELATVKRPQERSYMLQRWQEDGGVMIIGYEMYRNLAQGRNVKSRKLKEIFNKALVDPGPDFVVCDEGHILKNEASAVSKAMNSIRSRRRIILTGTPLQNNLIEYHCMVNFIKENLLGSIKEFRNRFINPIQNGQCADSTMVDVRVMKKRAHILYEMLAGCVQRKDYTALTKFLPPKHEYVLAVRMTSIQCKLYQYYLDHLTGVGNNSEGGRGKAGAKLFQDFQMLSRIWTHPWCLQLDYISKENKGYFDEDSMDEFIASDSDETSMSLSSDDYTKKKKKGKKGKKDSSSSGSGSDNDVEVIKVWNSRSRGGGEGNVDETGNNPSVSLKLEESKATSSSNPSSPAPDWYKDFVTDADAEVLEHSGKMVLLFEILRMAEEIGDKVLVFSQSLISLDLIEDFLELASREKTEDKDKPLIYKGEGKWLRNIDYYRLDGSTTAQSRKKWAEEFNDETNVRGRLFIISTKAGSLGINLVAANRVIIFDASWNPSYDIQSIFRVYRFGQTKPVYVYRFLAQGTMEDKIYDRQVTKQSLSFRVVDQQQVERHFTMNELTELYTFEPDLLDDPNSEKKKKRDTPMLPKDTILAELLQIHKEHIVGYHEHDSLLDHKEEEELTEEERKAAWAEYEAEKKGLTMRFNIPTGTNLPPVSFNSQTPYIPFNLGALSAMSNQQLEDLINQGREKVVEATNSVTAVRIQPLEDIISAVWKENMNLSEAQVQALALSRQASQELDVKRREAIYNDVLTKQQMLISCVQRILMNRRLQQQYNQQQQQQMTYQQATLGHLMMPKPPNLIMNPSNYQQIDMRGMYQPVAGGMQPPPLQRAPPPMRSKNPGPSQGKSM
UniProt P50750: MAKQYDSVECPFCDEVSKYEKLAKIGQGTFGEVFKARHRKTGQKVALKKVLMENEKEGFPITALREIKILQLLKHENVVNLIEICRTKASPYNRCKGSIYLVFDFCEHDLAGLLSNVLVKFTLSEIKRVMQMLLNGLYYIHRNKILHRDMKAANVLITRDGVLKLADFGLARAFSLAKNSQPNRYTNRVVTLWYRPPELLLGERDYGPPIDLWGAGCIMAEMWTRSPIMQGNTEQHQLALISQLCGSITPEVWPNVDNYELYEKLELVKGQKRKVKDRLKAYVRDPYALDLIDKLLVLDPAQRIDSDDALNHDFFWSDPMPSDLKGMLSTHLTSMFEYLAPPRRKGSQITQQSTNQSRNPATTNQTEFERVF
UniProt Q9UER7: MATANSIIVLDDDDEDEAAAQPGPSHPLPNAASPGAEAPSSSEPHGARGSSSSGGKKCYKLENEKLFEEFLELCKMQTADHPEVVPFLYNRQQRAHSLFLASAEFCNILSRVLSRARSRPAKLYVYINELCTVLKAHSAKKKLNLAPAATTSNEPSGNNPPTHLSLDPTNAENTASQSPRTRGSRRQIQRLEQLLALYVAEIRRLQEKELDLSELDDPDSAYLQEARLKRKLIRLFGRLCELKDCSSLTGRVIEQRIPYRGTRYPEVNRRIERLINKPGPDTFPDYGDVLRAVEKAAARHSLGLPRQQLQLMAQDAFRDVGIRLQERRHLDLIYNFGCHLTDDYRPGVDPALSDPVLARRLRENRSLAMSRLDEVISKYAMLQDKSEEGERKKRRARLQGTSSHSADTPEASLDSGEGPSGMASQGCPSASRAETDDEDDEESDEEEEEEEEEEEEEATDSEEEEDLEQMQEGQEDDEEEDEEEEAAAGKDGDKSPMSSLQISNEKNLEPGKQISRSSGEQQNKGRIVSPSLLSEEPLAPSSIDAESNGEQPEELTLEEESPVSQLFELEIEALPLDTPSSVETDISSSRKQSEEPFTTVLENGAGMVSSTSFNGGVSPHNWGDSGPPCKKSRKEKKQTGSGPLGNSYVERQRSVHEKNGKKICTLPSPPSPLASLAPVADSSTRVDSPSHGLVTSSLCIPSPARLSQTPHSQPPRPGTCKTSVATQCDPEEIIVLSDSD
UniProt P63165, residues 1-97: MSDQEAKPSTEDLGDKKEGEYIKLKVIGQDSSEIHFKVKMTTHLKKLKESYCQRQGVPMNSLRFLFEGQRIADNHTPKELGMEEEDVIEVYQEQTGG
UniProt P61956: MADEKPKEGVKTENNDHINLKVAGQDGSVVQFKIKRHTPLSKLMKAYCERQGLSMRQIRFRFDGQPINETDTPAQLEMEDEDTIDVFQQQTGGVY

Tests used:
Experiment in all cases: proximity labelling
[1] = molecular target: TurboID CTD-Sp100-HMG (human) (UniProt P23497)
[2] = molecular target: TurboID-Sp100-HMG (human) (UniProt P23497)
[3] = molecular target: TurboID-Sp100-HMG (human) (UniProt P23497); remark: listed apart in the source

ATRX (from UniProt P46100 1-2492)
binding [1]: binds

CDK9 (from UniProt P50750 1-372)
binding [2]: binds

DAXX (from UniProt Q9UER7 1-740)
binding [2]: binds
binding [1]: binds

SUMO1 (from UniProt P63165 1-97)
binding [2]: binds

SUMO2 (from UniProt P61956)
binding [2]: binds

B1: SMC6 (protein, UniProt Q96SB8 1-1091)
chain: MAKRKEENFSSPKNAKRPRQEELEDFDKDGDEDECKGTTLTAAEVGIIESIHLKNFMCHSMLGPFKFGSNVNFVVGNNGSGKSAVLTALIVGLGGRAVATNRGSSLKGFVKDGQNSADISITLRNRGDDAFKASVYGNSILIQQHISIDGSRSYKLKSATGSVVSTRKEELIAILDHFNIQVDNPVSVLTQEMSKQFLQSKNEGDKYKFFMKATQLEQMKEDYSYIMETKERTKEQIHQGEERLTELKRQCVEKEERFQSIAGLSTMKTNLESLKHEMAWAVVNEIEKQLNAIRDNIKIGEDRAARLDRKMEEQQVRLNEAEQKYKDIQDKLEKISEETNARAPECMALKADVVAKKRAYNEAEVLYNRSLNEYKALKKDDEQLCKRIEELKKSTDQSLEPERLERQKKISWLKERVKAFQNQENSVNQEIEQFQQAIEKDKEEHGKIKREELDVKHALSYNQRQLKELKDSKTDRLKRFGPNVPALLEAIDDAYRQGHFTYKPVGPLGACIHLRDPELALAIESCLKGLLQAYCCHNHADERVLQALMKRFYLPGTSRPPIIVSEFRNEIYDVRHRAAYHPDFPTVLTALEIDNAVVANSLIDMRGIETVLLIKNNSVARAVMQSQKPPKNCREAFTADGDQVFAGRYYSSENTRPKFLSRDVDSEISDLENEVENKTAQILNLQQHLSALEKDIKHNEELLKRCQLHYKELKMKIRKNISEIRELENIEEHQSVDIATLEDEAQENKSKMKMVEEHMEQQKENMEHLKSLKIEAENKYDAIKFKINQLSELADPLKDELNLADSEVDNQKRGKRHYEEKQKEHLDTLNKKKRELDMKEKELEEKMSQARQICPERIEVEKSASILDKEINRLRQKIQAEHASHGDREEIMRQYQEARETYLDLDSKVRTLKKFIKLLGEIMEHRFKTYQQFRRCLTLRCKLYFDNLLSQRAYCGKMNFDHKNETLSISVQPGEGNKAAFNDMRALSGGERSFSTVCFILSLWSIAESPFRCLDEFDVYMDMVNRRIAMDLILKMADSQRFRQFILLTPQSMSSLPSSKLIRILRMSDPERGQTTLPFRPVTQEEDDDQR
binding [3]: binds
